According to patent US20120213794A1:
These are yes or no findings as the source states them, for the method shown. A result given as binding can be weak or reduced; the word gives no strength.

By UniProt entry, the sequences of proteins in these tests, tags left out. Where a name states a change or a piece, a line headed by the entry shows the natural chain unless it says otherwise.
UniProt P55899: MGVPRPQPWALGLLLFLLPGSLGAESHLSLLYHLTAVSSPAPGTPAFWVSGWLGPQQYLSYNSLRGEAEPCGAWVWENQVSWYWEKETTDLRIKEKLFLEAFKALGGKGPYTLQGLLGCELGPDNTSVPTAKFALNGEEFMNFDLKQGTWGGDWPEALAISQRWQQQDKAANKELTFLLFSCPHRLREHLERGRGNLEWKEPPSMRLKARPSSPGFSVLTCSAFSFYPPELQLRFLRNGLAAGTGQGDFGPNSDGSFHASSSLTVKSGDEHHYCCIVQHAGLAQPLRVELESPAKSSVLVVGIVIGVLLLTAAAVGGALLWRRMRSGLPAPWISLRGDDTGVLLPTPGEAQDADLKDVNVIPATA

Molecular target: human FcRn (human) (UniProt P55899)
Experiment: Biacore T-100; FcRn immobilized on CM5, 100 nM mAb at pH 6.0, dissociation at pH 7.3

binding | Binder
binds | AX132 IgG2 (antibody) heavy: EVQLLESGGGLVQPGGSLRLSCKASGYTFSSYGMYWVRQAPGKGLEWIGWIDPGSGGTKYNEKFKGKATISRDNSKNTLYLQMNSLRAEDTAVYYCARERYGYYFDYWGQGTLVTVSSASTKGPSVFPLAPCSRSTSESTAALGCLVKDYFPEPVTVSWNSGALTSGVHTFPAVLQSSGLYSLSSVVTVPSSNFGTQTYTCNVDHKPSNTKVDKTVERKCCVECPPCPAPPVAGPSVFLFPPKPKDTLMISRTPEVTCVVVDVSHEDPEVQFNWYVDGVEVHNAKTKPREEQFNSTFRVVSVLTVVHQDWLNGKEYKCKVSNKGLPAPIEKTISKTKGQPREPQVYTLPPSREEMTKNQVSLTCLVKGFYPSDIAVEWESNGQPENNYKTTPPMLDSDGSFFLYSKLTVDKSRWQQGNVFSCSVMHEALHNHYTQKSLSLSPGK VL: EIVLTQSPATLSLSPGERATITCRASQYVGSYLNWYQQKPGQAPRLLIYDASNRATGIPARFSGSGSGTDFTLTISSLEPEDFAVYYCQVWDSSPPVVFGGGTKVEIK
binds | AX213 IgG2 (antibody) heavy: EVQLLESGGGLVQPGGSLRLSCKASGYTFSRYGINWVRQAPGKGLEWIGRIDPGNGGTRYNEKFKGKATISRDNSKNTLYLQMNSLRAEDTAVYYCARANDGYSFDYWGQGTLVTVSSASTKGPSVFPLAPCSRSTSESTAALGCLVKDYFPEPVTVSWNSGALTSGVHTFPAVLQSSGLYSLSSVVTVPSSNFGTQTYTCNVDHKPSNTKVDKTVERKCCVECPPCPAPPVAGPSVFLFPPKPKDTLMISRTPEVTCVVVDVSHEDPEVQFNWYVDGVEVHNAKTKPREEQFNSTFRVVSVLTVVHQDWLNGKEYKCKVSNKGLPAPIEKTISKTKGQPREPQVYTLPPSREEMTKNQVSLTCLVKGFYPSDIAVEWESNGQPENNYKTTPPMLDSDGSFFLYSKLTVDKSRWQQGNVFSCSVMHEALHNHYTQKSLSLSPGK light: EIVLTQSPATLSLSPGERATITCRASQYVGSYLNWYQQKPGQAPRLLIYDASNRATGIPARFSGSGSGTDFTLTISSLEPEDFAVYYCQVWDSSPPVVFGGGTKVEIKRTVAAPSVFIFPPSDEQLKSGTASVVCLLNNFYPREAKVQWKVDNALQSGNSQESVTEQDSKDSTYSLSSTLTLSKADYEKHKVYACEVTHQGLSSPVTKSFNRGEC
